For the data set, the target named is T1, DrSSB (Deinococcus radiodurans) (UniProt Q9RY51).
T1 sequence (looked up, limits assumed): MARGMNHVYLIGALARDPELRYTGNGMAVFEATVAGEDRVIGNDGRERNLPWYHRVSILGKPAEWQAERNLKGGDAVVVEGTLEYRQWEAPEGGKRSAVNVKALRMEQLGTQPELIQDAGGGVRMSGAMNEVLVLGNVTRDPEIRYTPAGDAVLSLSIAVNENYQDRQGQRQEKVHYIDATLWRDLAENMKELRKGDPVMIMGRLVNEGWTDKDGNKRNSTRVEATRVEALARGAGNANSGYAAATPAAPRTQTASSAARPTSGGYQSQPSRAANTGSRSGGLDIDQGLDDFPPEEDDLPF
Put plainly: BLI. Particulars: 1 mM ATP, BLI: 50 mM Hepes pH 7.0, 150 mM NaCl, 0.1% Tween, temperature not stated, recombinant protein, protein details: N-terminal 6His.

Data on two sequences can be found in article PMC9865707, “Structural Insights of the DciA Helicase Loader in Its Relationship with DNA”.

For at least one entry, the source does not settle the construct or the ends of the probe. At least one verdict was read from the data and is not stated in words by the source. Where a protein sequence is shown, tags need not be part of it.

In the case of “AAGCGTGGTGAAACCTACCTCTGATTCGAAACCTTCACTTTACGTGGTCTGGCGTGGTGAATGTTCGTCGGCGTGCTCGA / CCAGGAATACGGCAAGTTGGAGGCCGGGCTGGATGGAGACTAAGCTTTGGAAGTGAAGGTTTCGAATCAGAGGTAGGTTTCACCACGC [foDNA oso23/oso18]”, under “label: 5' biotin on strand 1”, the binding result is listed as “binds”.
“AAGCGTGGTGAAACCTACCTCTGATTCGAAACCTTCACTTTACGTGGTCTGGCGTGGTGAATGTTCGTCGGCGTGCTCGA [ssDNA oso23]”: the binding result (label: 5' biotin, single-stranded DNA) is listed as “binds”.
